Laboratory results as given in patent publication US20250268876A1, “TREATMENT OF HIDRADENITIS SUPPURATIVA WITH ORISMILAST” (UNION THERAPEUTICS A/S, priority 2021, published 2025).

System: TNF-α secretion from human whole blood
Test: Whole blood TNF-α secretion assay (LPS or SEB)
Format: cell-based
Details: SEB 1 μg/mL, donor 2

Work on `C[C@@H]1CCN(C(=O)CC#N)C[C@@H]1N(C)c1ncnc2[nH]ccc12` [Tofacitinib] yielded an EC50 (24 h) of 8.3 µM and an EC50 (48 h) of 1.45 µM.
